In patent US20200222474A1, “COMPOSITIONS AND METHODS FOR INCREASING PHYTOCHEMICAL BIOAVAILABLITY AND BIOACTIVITY” (North Carolina State University, priority 2017, published 2020):
The source gives many values for each of these; only a part stands here.

System: L. acidophilus NCFM
Assay: RNA-seq transcriptional analysis of L. acidophilus NCFM growing on plant glycosides
Format: cell-based, Lactobacillus acidophilus
[1] = LBA0160 Anaerobic ribonucleoside triphosphate reductase, COG F
[2] = LBA0197 Oligopeptide binding protein, COG E
[3] = LBA0198 Peptide binding protein, COG E
[4] = LBA0225 6-p-beta-glucosidase, COG G
[5] = LBA0227 Celiohiose-specific PTS IIC, COG G
[6] = LBA0228 Transcriptional regulator, COG G
[7] = LBA0455 Mannose-specific PTS system component IIC, COG G
[8] = LBA0456 Mannose-specific PTS system component IID, COG G
[9] = LBA0491 Cellobiose-specific PTS IIC, COG G
[10] = LBA0503 ABC transporter permease, COG G
[11] = LBA0606 PTS system arbutin-like IIBC component, COG G
[12] = LBA0609 PTS enzyme II ABC component, COG G
[13] = LBA0680 Glycogen branching enzyme, COG G
[14] = LBA0681 Glucose-1-phosphate adenylyltransferase, COG G
[15] = LBA0682 Glucose-1-phosphate adenylyltransferase, COG G
[16] = LBA0683 Glycogen synthase, COG G
[17] = LBA0685 Glycogen phosphorylase, COG G
[18] = LBA0686 Amylopullulanase, COG G
[19] = LBA0687 Phosphoglucomutase, COG G
[20] = LBA0724 Transcription antiterminator, COG G
[21] = LBA0726 Phospho-beta-galactosidase II, COG G
[22] = LBA0874 Phospho-beta-galactosidase I, COG G
[23] = LBA0875 Transcriptional regulator, COG G
[24] = LBA0876 Cellobiose-specific PTS IIC, COG G
[25] = LBA0877 Cellobiose-specific PTS IIA, COG G
[26] = LBA0986 Galactose mutarotase related ensyme, COG G
[27] = LBA1102 Transmembrane protein, COG G
[28] = LBA1400 Oligopeptide ABC transporter substrate binding protein, COG E
[29] = LBA1433 Dihydroxyacetone kinase, COG G
[30] = LBA1434 Dihydroxyacetone kinase, COG G

## O=c1ccc2cc(O[C@@H]3O[C@H](CO)[C@@H](O)[C@H](O)[C@H]3O)c(O)cc2o1 [Esculin]
LBA0146 PTS system HA, COG G
  Log2 differential normalized TPM ratio compared to glucose: 1.3
  Log2 differential normalized TPM ratio compared to lactose: −0.3
  Transcripts per million (rpm): 20.2 rpm
[1]
  Log2 differential normalized TPM ratio compared to glucose: −0.3
  Log2 differential normalized TPM ratio compared to lactose: −1.2
  Transcripts per million (rpm): 146 rpm
[2]
  Log2 differential normalized TPM ratio compared to glucose: 0.9
  Log2 differential normalized TPM ratio compared to lactose: 3.1
  Transcripts per million (rpm): 126.9 rpm
[3]
  Log2 differential normalized TPM ratio compared to glucose: 0.2
  Log2 differential normalized TPM ratio compared to lactose: 3.2
  Transcripts per million (rpm): 50.6 rpm
[4]
  Log2 differential normalized TPM ratio compared to glucose: −0.2
  Log2 differential normalized TPM ratio compared to lactose: 0.1
  Transcripts per million (rpm): 24.4 rpm
[5]
  Log2 differential normalized TPM ratio compared to glucose: 0.8
  Log2 differential normalized TPM ratio compared to lactose: 0.5
  Transcripts per million (rpm): 6.5 rpm
[6]
  Log2 differential normalized TPM ratio compared to glucose: 0.9
  Log2 differential normalized TPM ratio compared to lactose: 0.8
  Transcripts per million (rpm): 27.3 rpm
[7]
  Log2 differential normalized TPM ratio compared to glucose: 2.3
  Log2 differential normalized TPM ratio compared to lactose: 1.2
  Transcripts per million (rpm): 1425.6 rpm
[8]
  Log2 differential normalized TPM ratio compared to glucose: 2.3
  Log2 differential normalized TPM ratio compared to lactose: 1.2
  Transcripts per million (rpm): 2482.1 rpm
[9]
  Log2 differential normalized TPM ratio compared to glucose: 3.4
  Log2 differential normalized TPM ratio compared to lactose: 1.3
  Transcripts per million (rpm): 81.2 rpm
[10]
  Log2 differential normalized TPM ratio compared to glucose: 2.4
  Log2 differential normalized TPM ratio compared to lactose: 1.2
  Transcripts per million (rpm): 17.4 rpm
LBA0505 Fructosidase, COG G
  Log2 differential normalized TPM ratio compared to glucose: 2.2
  Log2 differential normalized TPM ratio compared to lactose: 1.3
  Transcripts per million (rpm): 17.1 rpm
[11]
  Log2 differential normalized TPM ratio compared to glucose: 2.8
  Log2 differential normalized TPM ratio compared to lactose: 0.5
  Transcripts per million (rpm): 30.7 rpm
[12]
  Log2 differential normalized TPM ratio compared to glucose: 2.8
  Log2 differential normalized TPM ratio compared to lactose: 1.2
  Transcripts per million (rpm): 370.1 rpm
[13]
  Log2 differential normalized TPM ratio compared to glucose: 1.3
  Log2 differential normalized TPM ratio compared to lactose: 0.3
  Transcripts per million (rpm): 168.7 rpm
[14]
  Log2 differential normalized TPM ratio compared to glucose: 2.4
  Log2 differential normalized TPM ratio compared to lactose: 0.6
  Transcripts per million (rpm): 226.7 rpm
[15]
  Log2 differential normalized TPM ratio compared to glucose: 2.4
  Log2 differential normalized TPM ratio compared to lactose: 0.6
  Transcripts per million (rpm): 280.1 rpm
[16]
  Log2 differential normalized TPM ratio compared to glucose: 2.5
  Log2 differential normalized TPM ratio compared to lactose: 0.6
  Transcripts per million (rpm): 356.1 rpm
[17]
  Log2 differential normalized TPM ratio compared to glucose: 2.7
  Log2 differential normalized TPM ratio compared to lactose: 0.8
  Transcripts per million (rpm): 412 rpm
[18]
  Log2 differential normalized TPM ratio compared to glucose: 2.8
  Log2 differential normalized TPM ratio compared to lactose: 1
  Transcripts per million (rpm): 472.5 rpm
[19]
  Log2 differential normalized TPM ratio compared to glucose: 2.1
  Log2 differential normalized TPM ratio compared to lactose: 0.3
  Transcripts per million (rpm): 532.6 rpm
[20]
  Log2 differential normalized TPM ratio compared to glucose: 5.5
  Log2 differential normalized TPM ratio compared to lactose: 3.6
  Transcripts per million (rpm): 1362.9 rpm
LBA0725 PTS EII system, COG G
  Log2 differential normalized TPM ratio compared to glucose: 9.8
  Log2 differential normalized TPM ratio compared to lactose: 7.1
  Transcripts per million (rpm): 1673.1 rpm
[21]
  Log2 differential normalized TPM ratio compared to glucose: 6.9
  Log2 differential normalized TPM ratio compared to lactose: 4.2
  Transcripts per million (rpm): 2576.8 rpm
[22]
  Log2 differential normalized TPM ratio compared to glucose: 1.7
  Log2 differential normalized TPM ratio compared to lactose: 0.5
  Transcripts per million (rpm): 49.2 rpm
[23]
  Log2 differential normalized TPM ratio compared to glucose: 1.3
  Log2 differential normalized TPM ratio compared to lactose: 0.9
  Transcripts per million (rpm): 31.2 rpm
[24]
  Log2 differential normalized TPM ratio compared to glucose: 2.9
  Log2 differential normalized TPM ratio compared to lactose: 0
  Transcripts per million (rpm): 776.8 rpm
[25]
  Log2 differential normalized TPM ratio compared to glucose: 3
  Log2 differential normalized TPM ratio compared to lactose: −0.1
  Transcripts per million (rpm): 501.6 rpm
LBA0911 Aminopeptidase, COG E
  Log2 differential normalized TPM ratio compared to glucose: 2.7
  Log2 differential normalized TPM ratio compared to lactose: 1.6
  Transcripts per million (rpm): 1141.5 rpm
[26]
  Log2 differential normalized TPM ratio compared to glucose: 2
  Log2 differential normalized TPM ratio compared to lactose: 1.4
  Transcripts per million (rpm): 379.4 rpm
LBA1022 Arginase, COG E
  Log2 differential normalized TPM ratio compared to glucose: 2.3
  Log2 differential normalized TPM ratio compared to lactose: 2.1
  Transcripts per million (rpm): 1342.6 rpm
LBA1055 Mutator protein, COG F
  Log2 differential normalized TPM ratio compared to glucose: −1.4
  Log2 differential normalized TPM ratio compared to lactose: −1.1
  Transcripts per million (rpm): 5.8 rpm
[27]
  Log2 differential normalized TPM ratio compared to glucose: 2.6
  Log2 differential normalized TPM ratio compared to lactose: 1.3
  Transcripts per million (rpm): 226.4 rpm
[28]
  Log2 differential normalized TPM ratio compared to glucose: −1.1
  Log2 differential normalized TPM ratio compared to lactose: −2.1
  Transcripts per million (rpm): 5.2 rpm
[29]
  Log2 differential normalized TPM ratio compared to glucose: 3.7
  Log2 differential normalized TPM ratio compared to lactose: 1.1
  Transcripts per million (rpm): 80.6 rpm
[30]
  Log2 differential normalized TPM ratio compared to glucose: 4.5
  Log2 differential normalized TPM ratio compared to lactose: 1.2
  Transcripts per million (rpm): 85.7 rpm
